Assay results as given in PMC8807507.
Results are given in words; binding and its absence hold for the method and conditions named. Binding seen in cells or lysates may run through a third protein. Some results given as binding are weak or reduced against the parent protein; the word gives no strength.

The chains behind the UniProt entries cited, without tags or fusion partners.
UniProt Q4VSI4: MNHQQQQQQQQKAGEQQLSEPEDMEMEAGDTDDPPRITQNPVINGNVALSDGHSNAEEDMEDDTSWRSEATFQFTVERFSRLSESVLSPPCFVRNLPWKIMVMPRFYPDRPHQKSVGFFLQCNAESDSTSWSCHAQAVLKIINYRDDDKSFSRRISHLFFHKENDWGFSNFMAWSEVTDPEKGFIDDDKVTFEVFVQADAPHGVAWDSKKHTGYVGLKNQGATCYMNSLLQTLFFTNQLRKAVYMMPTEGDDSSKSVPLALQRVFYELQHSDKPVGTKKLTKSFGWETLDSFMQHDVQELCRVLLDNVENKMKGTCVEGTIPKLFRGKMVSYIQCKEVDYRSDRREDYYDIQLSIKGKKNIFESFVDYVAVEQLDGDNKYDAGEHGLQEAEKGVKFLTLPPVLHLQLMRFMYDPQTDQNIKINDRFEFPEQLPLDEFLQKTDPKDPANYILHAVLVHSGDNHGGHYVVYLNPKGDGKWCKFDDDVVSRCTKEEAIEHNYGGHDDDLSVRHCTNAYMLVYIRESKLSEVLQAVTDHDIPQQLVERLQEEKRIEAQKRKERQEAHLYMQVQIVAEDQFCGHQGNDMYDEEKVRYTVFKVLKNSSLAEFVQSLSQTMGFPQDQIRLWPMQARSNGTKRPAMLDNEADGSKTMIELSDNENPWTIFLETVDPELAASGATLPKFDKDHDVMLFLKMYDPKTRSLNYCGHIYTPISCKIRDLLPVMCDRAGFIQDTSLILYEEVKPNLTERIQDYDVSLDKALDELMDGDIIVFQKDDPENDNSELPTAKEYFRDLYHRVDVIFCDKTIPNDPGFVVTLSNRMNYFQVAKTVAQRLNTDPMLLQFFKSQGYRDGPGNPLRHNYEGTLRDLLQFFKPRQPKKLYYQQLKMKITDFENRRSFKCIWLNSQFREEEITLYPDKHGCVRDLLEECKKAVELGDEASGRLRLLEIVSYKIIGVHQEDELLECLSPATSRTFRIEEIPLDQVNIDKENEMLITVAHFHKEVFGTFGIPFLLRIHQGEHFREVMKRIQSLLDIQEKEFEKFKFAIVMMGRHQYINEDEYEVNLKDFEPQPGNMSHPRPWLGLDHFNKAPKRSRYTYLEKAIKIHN
UniProt P10361: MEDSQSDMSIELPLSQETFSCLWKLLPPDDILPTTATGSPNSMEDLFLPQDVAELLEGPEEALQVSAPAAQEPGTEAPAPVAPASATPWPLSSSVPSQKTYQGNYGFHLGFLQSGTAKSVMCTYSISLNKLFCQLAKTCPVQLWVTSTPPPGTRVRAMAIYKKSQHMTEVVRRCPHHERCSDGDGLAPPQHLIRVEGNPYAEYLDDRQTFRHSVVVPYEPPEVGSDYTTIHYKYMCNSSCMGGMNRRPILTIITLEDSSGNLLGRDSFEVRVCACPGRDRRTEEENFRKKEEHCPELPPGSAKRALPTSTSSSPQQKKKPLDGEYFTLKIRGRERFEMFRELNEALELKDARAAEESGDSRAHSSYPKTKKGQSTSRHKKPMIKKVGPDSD

Target: ubiquitin-specific protease 7 (rat (endogenous in H9C2)) (UniProt Q4VSI4)
Experiment: co-IP; anti-USP7 added to H9C2 cell protein extracts, protein A/G magnetic beads overnight at 4°C, SDS-PAGE and immunoblotting

Substance: p53 (from UniProt P10361 1-391)
- binding: binds
